# Assay results reported in PubChem BioAssay AID2283097 (EPA ToxCast).
# The chains behind the UniProt entries cited, without tags or fusion partners. Where a name states a change or a piece, a line headed by the entry shows the natural chain unless it says otherwise.
# UniProt Q16678: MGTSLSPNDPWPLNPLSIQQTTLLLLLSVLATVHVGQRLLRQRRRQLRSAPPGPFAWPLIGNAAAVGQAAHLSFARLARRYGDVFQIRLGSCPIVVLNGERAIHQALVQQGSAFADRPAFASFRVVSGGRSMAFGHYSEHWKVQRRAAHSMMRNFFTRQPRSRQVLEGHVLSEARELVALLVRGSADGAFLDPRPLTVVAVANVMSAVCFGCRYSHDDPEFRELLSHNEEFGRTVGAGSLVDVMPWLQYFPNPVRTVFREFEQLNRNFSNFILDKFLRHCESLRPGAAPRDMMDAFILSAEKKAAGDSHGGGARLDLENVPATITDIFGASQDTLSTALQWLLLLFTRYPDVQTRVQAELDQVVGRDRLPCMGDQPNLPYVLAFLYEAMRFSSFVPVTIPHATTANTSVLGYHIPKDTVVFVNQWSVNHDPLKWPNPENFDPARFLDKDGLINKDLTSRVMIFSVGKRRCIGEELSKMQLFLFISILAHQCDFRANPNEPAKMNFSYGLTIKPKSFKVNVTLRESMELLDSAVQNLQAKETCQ
# This list was built around the results that the source calls inconclusive (neither active nor inactive); the mix of calls is not that of the screen. Where the call is inconclusive, the potency comes from a doubtful curve fit. Active and inactive are the calls of the source. The calls were made as follows: active = hit-call score of the fitted dose curve at least 0.9, where 1 is the maximum; inconclusive = response in the unintended direction; inactive = score below 0.9.
# Biological target: human CYP1B1, CYP1B1 (gene 1545) (UniProt Q16678)
# Assay: NVS_ADME_hCYP1B1: NovaScreen (NVS) CYP450-related Enzyme Activity (ADME) Assay for human CYP1B1
# Protocol: NVS_ADME_hCYP1B1 is a biochemical, single-readout assay that uses extracted gene-proteins in a cell-free assay. Measurements were taken 1 hour after chemical dosing in a 96-well plate.NVS_ADME_hCYP1B1 is one of one assay component(s) measured or calculated from the NVS_ADME_hCYP1B1 assay. It is designed to make measurements of enzyme activity, a form of enzyme reporter, as detected with fluorescence intensity signals by Fluorescence technology.Data from the assay component NVS_ADME_hCYP1B1 was analyzed into 1 assay endpoint. This assay endpoint, NVS_ADME_hCYP1B1, was analyzed in the positive analysis fitting direction relative to Acetonitrile as the negative control and baseline of activity. Using a type of enzyme reporter, loss-of-signal activity can be used to understand changes in the enzymatic activity as they relate to the gene CYP1B1. Furthermore, this assay endpoint can be referred to as a primary readout, because this assay has produced multiple assay endpoints where this one serves a enzymatic activity function. To generalize the intended target to other relatable targets, this assay endpoint is annotated to the cyp intended target family, where the subfamily is xenobiotic metabolism.
# Binding assays used specific radioligands (tritiated, iodinated) with non-radioactive competitive displacement ligands in agonist or antagonist protocols (as indicated) and various reference compounds and inhibitors to titrate specific binding to receptors and transporters. Most enzyme assays (CYPs, kinases, phosphatases, proteases, HDACs) used recombinant protein and specific substrates (fluorescence mostly, some colorimetric and radioactive) and inhibitors, followed by a biochemical separation of substrate and product. All assays for the biochemical HTS were initially run in duplicate at a single concentration (10 uM for CYP450 assays and 25 uM for all others). […]
row,SMILES,AC50
1,CCOC(=O)NCCOc1ccc(Oc2ccccc2)cc1,inconclusive: 5.23 µM
2,c1ccc2[nH]c(-c3cscn3)nc2c1,active: 6.26 µM
3,C#CCOC(=O)[C@@H](C)Oc1ccc(Oc2ncc(Cl)cc2F)cc1,active: 2.14 µM
